# Results as given in patent publication US4211769A, “Preparations for vaginal administration” (Takeda Chemical Industries, Ltd., priority 1977, dated 1980).
# Like-named read-outs stand apart in the source and are kept apart here. Part of at least one peptide drawing is inferred or uncertain, most often the ends.
# System: matured female SD rats
# Format: in vivo, rat
# Procedure: A synthetic peptide (monoacetate.pentahydrate; (Pyr)Glu-His-Trp-Ser-Tyr-D-Leu-Leu-Arg-Pro-NH-C2 H5) was dissolved in aliquots of Clark-Lubs buffer [J. Bact. 2, (1), 109, 191(1971) [or Sorensen's buffer [Ergeb.Physiol. 12, 3931 (1912)] at pH 2-7 and each solution was supported on a piece (substantially-predetermined volume) of cotton and administered into the vaginas of rats to investigate the pH dependence of the ovulation-stimulating activity of the peptide.
# Using matured female SD rats (120-150 days, body weights from 250 to 350 g), each preparation was vaginally administered during the diestrus and the animal was autopsied next morning to check for the occurrence of ovulation based on the presence or absence of ova in the ampulla.
# The same peptide as that used in Example 12 was dissolved in 0.238 mol/liter aqueous solutions of various water-soluble aliphatic carboxylic acids which had been previously adjusted to pH 3.5 with small amounts of 10 N--NaOH. By the same procedure as that described in Example 12, rats were vaginally dosed with 0.2 ml/kg each of the solutions (pH 3.5) at a dose level of 40 ng/100 g to study the influence of those acids upon ovulation-stimulating activity.
# The same peptide as used in Example 12 was employed as the active component. Citric acid was added to aliquots of phthalate buffer (pH 3.5) at the levels of addition of 1, 2, 5, 7 and 10% (W/V) and the pH of each solution was readjusted to pH 3.5 with a small amount of concentrated NaOH. This solution was vaginally administered into rats in the same manner as Example 12 to investigate the influence of different levels of addition of citric acid upon ovulation-stimulating activity.
# Using the same peptide as that used in Example 12 and various water-solublegels, vaginal preparations were prepared by the procedures described in Examples 12, 13 and 14 as well as by procedures analogous thereto and each preparation was administered into the vaginas of rats by means of a glass applicator at the dose levels of 60 to 100 mg. The ovulation-stimulating effects were investigated by the same procedure as that described in Example 12.
smiles,measurement,setting,value
"CCNC(=O)[C@@H]1CCCN1C(=O)[C@H](CCCNC(=N)N)NC(=O)[C@H](CC(C)C)NC(=O)[C@@H](CC(C)C)NC(=O)[C@H](Cc1ccc(O)cc1)NC(=O)[C@H](CO)NC(=O)[C@H](Cc1c[nH]c2ccccc12)NC(=O)[C@H](Cc1c[nH]cn1)NC(=O)[C@@H]1CCC(=O)N1 [peptide of Example 12, (Pyr)Glu-His-Trp-Ser-Tyr-D-Leu-Leu-Arg-Pro-NH-C2 H5]",number of ovulating rats/number of vaginally dosed rats,"vaginal gel, base Agar 10%, 50 ng/rat",0/5
same,number of ovulating rats/number of vaginally dosed rats,"vaginal gel, base Agar 10%, 100 ng/rat",4/5
same,number of ovulating rats/number of vaginally dosed rats,"vaginal gel, base CMC-Na 5%, 100 ng/rat",1/7
same,number of ovulating rats/number of vaginally dosed rats,"vaginal gel, base CMC-Na 5%, 150 ng/rat",5/5
same,number of ovulating rats/number of vaginally dosed rats,"vaginal gel, base CMC-glycerin 5%, 100 ng/rat",1/5
same,number of ovulating rats/number of vaginally dosed rats,"vaginal gel, base Carrageenin 5%, 50 ng/rat",2/5
same,number of ovulating rats/number of vaginally dosed rats,"vaginal gel, base Carrageenin 5%, 80 ng/rat",5/5
same,number of ovulating rats/number of vaginally dosed rats,"vaginal gel, base Carrageenin 5%, 100 ng/rat",5/10
same,number of ovulating rats/number of vaginally dosed rats,"vaginal gel, base Carrageenin 5%, 150 ng/rat",9/10
same,number of ovulating rats/number of vaginally dosed rats,"vaginal gel, base Glycero-gelatin 33%, 80 ng/rat",0/10
same,number of ovulating rats/number of vaginally dosed rats,"vaginal gel, base Glycero-gelatin 33%, 100 ng/rat",2/10
same,number of ovulating rats/number of vaginally dosed rats,"vaginal gel, base Glycero-gelatin 33%, 150 ng/rat",4/15
same,number of ovulating rats/number of vaginally dosed rats,"vaginal gel, base Glycero-gelatin 33%, 200 ng/rat",6/9
same,number of ovulating rats/number of vaginally dosed rats,"vaginal gel, base Gum Xanthane 3%, 30 ng/rat",1/10
same,number of ovulating rats/number of vaginally dosed rats,"vaginal gel, base Gum Xanthane 3%, 40 ng/rat",3/10
same,number of ovulating rats/number of vaginally dosed rats,"vaginal gel, base Gum Xanthane 3%, 50 ng/rat",7/10
same,number of ovulating rats/number of vaginally dosed rats,"vaginal gel, base Gum Xanthane 3%, 60 ng/rat",8/10
same,number of ovulating rats/number of vaginally dosed rats,"vaginal gel, base Gum Xanthane 3%, 100 ng/rat",9/9
same,number of ovulating rats/number of vaginally dosed rats,"vaginal gel, base Polyacrylic acid 5%, 100 ng/rat",1/5
same,number of ovulating rats/number of vaginally dosed rats,"vaginal gel, base Polyacrylic acid 5%, 150 ng/rat",2/5
same,number of ovulating rats/number of vaginally dosed rats,"vaginal gel, base Starch 10%, 50 ng/rat",1/10
same,number of ovulating rats/number of vaginally dosed rats,"vaginal gel, base Starch 10%, 100 ng/rat",5/5
same,number of ovulating rats/number of vaginally dosed rats,"vaginal gel, base methyl-cellulose 5%, 50 ng/rat",1/10
same,number of ovulating rats/number of vaginally dosed rats,"vaginal gel, base methyl-cellulose 5%, 60 ng/rat",2/10
same,number of ovulating rats/number of vaginally dosed rats,"vaginal gel, base methyl-cellulose 5%, 70 ng/rat",3/10
same,number of ovulating rats/number of vaginally dosed rats,"vaginal gel, base methyl-cellulose 5%, 80 ng/rat",8/10
same,number of ovulating rats/number of vaginally dosed rats,"vaginal gel, base methyl-cellulose 5%, 100 ng/rat",9/10
same,number of ovulating rats/number of vaginally dosed rats,"vaginal, aqueous solution pH 3.5, 0.238 mol/liter acetic acid, 40 ng/100 g",5/10
same,number of ovulating rats/number of vaginally dosed rats,"vaginal, aqueous solution pH 3.5, 0.238 mol/liter citric acid, 40 ng/100 g",9/10
same,number of ovulating rats/number of vaginally dosed rats,"vaginal, aqueous solution pH 3.5, 0.238 mol/liter malic acid, 40 ng/100 g",3/10
same,number of ovulating rats/number of vaginally dosed rats,"vaginal, aqueous solution pH 3.5, 0.238 mol/liter malonic acid, 40 ng/100 g",7/10
same,number of ovulating rats/number of vaginally dosed rats,"vaginal, aqueous solution pH 3.5, 0.238 mol/liter tartaric acid, 40 ng/100 g",2/10
same,number of ovulating rats/number of vaginally dosed rats,"vaginal, aqueous solution pH 3.5, no organic carboxylic acid, 40 ng/100 g",0/10
same,number of ovulating rats/number of vaginally dosed rats,"vaginal, buffer on cotton, pH 2.02, 20 ng/100 g body weight",2/10
same,number of ovulating rats/number of vaginally dosed rats,"vaginal, buffer on cotton, pH 2.02, 30 ng/100 g body weight",5/10
same,number of ovulating rats/number of vaginally dosed rats,"vaginal, buffer on cotton, pH 2.02, 40 ng/100 g body weight",6/10
same,number of ovulating rats/number of vaginally dosed rats,"vaginal, buffer on cotton, pH 2.02, 50 ng/100 g body weight",7/10
same,number of ovulating rats/number of vaginally dosed rats,"vaginal, buffer on cotton, pH 3.47, 40 ng/100 g body weight",0/10
same,number of ovulating rats/number of vaginally dosed rats,"vaginal, buffer on cotton, pH 3.47, 50 ng/100 g body weight",2/10
same,number of ovulating rats/number of vaginally dosed rats,"vaginal, buffer on cotton, pH 3.47, 60 ng/100 g body weight",3/13
same,number of ovulating rats/number of vaginally dosed rats,"vaginal, buffer on cotton, pH 3.47, 80 ng/100 g body weight",8/10
same,number of ovulating rats/number of vaginally dosed rats,"vaginal, buffer on cotton, pH 3.47, 100 ng/100 g body weight",5/5
same,number of ovulating rats/number of vaginally dosed rats,"vaginal, buffer on cotton, pH 4.76, 40 ng/100 g body weight",4/20
same,number of ovulating rats/number of vaginally dosed rats,"vaginal, buffer on cotton, pH 4.76, 50 ng/100 g body weight",12/20
same,number of ovulating rats/number of vaginally dosed rats,"vaginal, buffer on cotton, pH 4.76, 60 ng/100 g body weight",13/20
same,number of ovulating rats/number of vaginally dosed rats,"vaginal, buffer on cotton, pH 4.76, 80 ng/100 g body weight",15/20
same,number of ovulating rats/number of vaginally dosed rats,"vaginal, buffer on cotton, pH 4.76, 100 ng/100 g body weight",15/15
same,number of ovulating rats/number of vaginally dosed rats,"vaginal, buffer on cotton, pH 6.70, 80 ng/100 g body weight",0/10
same,number of ovulating rats/number of vaginally dosed rats,"vaginal, buffer on cotton, pH 6.70, 100 ng/100 g body weight",4/10
same,number of ovulating rats/number of vaginally dosed rats,"vaginal, buffer on cotton, pH 6.70, 150 ng/100 g body weight",4/10
same,number of ovulating rats/number of vaginally dosed rats,"vaginal, buffer on cotton, pH 6.70, 200 ng/100 g body weight",8/10
same,number of ovulating rats/number of vaginally dosed rats,"vaginal, phthalate buffer pH 3.5, citric acid 0%, 40 ng/100 g",0/10
same,number of ovulating rats/number of vaginally dosed rats,"vaginal, phthalate buffer pH 3.5, citric acid 0%, 50 ng/100 g",2/10
same,number of ovulating rats/number of vaginally dosed rats,"vaginal, phthalate buffer pH 3.5, citric acid 0%, 60 ng/100 g",3/13
same,number of ovulating rats/number of vaginally dosed rats,"vaginal, phthalate buffer pH 3.5, citric acid 0%, 80 ng/100 g",8/10
same,number of ovulating rats/number of vaginally dosed rats,"vaginal, phthalate buffer pH 3.5, citric acid 0%, 100 ng/100 g",5/5
same,number of ovulating rats/number of vaginally dosed rats,"vaginal, phthalate buffer pH 3.5, citric acid 1%, 20 ng/100 g",0/10
same,number of ovulating rats/number of vaginally dosed rats,"vaginal, phthalate buffer pH 3.5, citric acid 1%, 30 ng/100 g",1/10
same,number of ovulating rats/number of vaginally dosed rats,"vaginal, phthalate buffer pH 3.5, citric acid 1%, 40 ng/100 g",6/10
same,number of ovulating rats/number of vaginally dosed rats,"vaginal, phthalate buffer pH 3.5, citric acid 1%, 50 ng/100 g",5/10
same,number of ovulating rats/number of vaginally dosed rats,"vaginal, phthalate buffer pH 3.5, citric acid 1%, 60 ng/100 g",8/10
same,number of ovulating rats/number of vaginally dosed rats,"vaginal, phthalate buffer pH 3.5, citric acid 2%, 20 ng/100 g",1/10
same,number of ovulating rats/number of vaginally dosed rats,"vaginal, phthalate buffer pH 3.5, citric acid 2%, 30 ng/100 g",2/10
same,number of ovulating rats/number of vaginally dosed rats,"vaginal, phthalate buffer pH 3.5, citric acid 2%, 40 ng/100 g",4/10
same,number of ovulating rats/number of vaginally dosed rats,"vaginal, phthalate buffer pH 3.5, citric acid 2%, 50 ng/100 g",4/10
same,number of ovulating rats/number of vaginally dosed rats,"vaginal, phthalate buffer pH 3.5, citric acid 2%, 60 ng/100 g",6/10
same,number of ovulating rats/number of vaginally dosed rats,"vaginal, phthalate buffer pH 3.5, citric acid 5%, 10 ng/100 g",1/10
same,number of ovulating rats/number of vaginally dosed rats,"vaginal, phthalate buffer pH 3.5, citric acid 5%, 20 ng/100 g",4/10
same,number of ovulating rats/number of vaginally dosed rats,"vaginal, phthalate buffer pH 3.5, citric acid 5%, 30 ng/100 g",6/10
same,number of ovulating rats/number of vaginally dosed rats,"vaginal, phthalate buffer pH 3.5, citric acid 5%, 40 ng/100 g",9/10
same,number of ovulating rats/number of vaginally dosed rats,"vaginal, phthalate buffer pH 3.5, citric acid 7%, 10 ng/100 g",0/10
same,number of ovulating rats/number of vaginally dosed rats,"vaginal, phthalate buffer pH 3.5, citric acid 7%, 20 ng/100 g",5/10
same,number of ovulating rats/number of vaginally dosed rats,"vaginal, phthalate buffer pH 3.5, citric acid 7%, 30 ng/100 g",9/10
same,number of ovulating rats/number of vaginally dosed rats,"vaginal, phthalate buffer pH 3.5, citric acid 10%, 10 ng/100 g",2/10
same,number of ovulating rats/number of vaginally dosed rats,"vaginal, phthalate buffer pH 3.5, citric acid 10%, 20 ng/100 g",7/10
